Drawing on PMC10809768, this text covers binding for one substance.

Chains of the proteins cited; added tags and fusions are not shown.
UniProt Q969H0: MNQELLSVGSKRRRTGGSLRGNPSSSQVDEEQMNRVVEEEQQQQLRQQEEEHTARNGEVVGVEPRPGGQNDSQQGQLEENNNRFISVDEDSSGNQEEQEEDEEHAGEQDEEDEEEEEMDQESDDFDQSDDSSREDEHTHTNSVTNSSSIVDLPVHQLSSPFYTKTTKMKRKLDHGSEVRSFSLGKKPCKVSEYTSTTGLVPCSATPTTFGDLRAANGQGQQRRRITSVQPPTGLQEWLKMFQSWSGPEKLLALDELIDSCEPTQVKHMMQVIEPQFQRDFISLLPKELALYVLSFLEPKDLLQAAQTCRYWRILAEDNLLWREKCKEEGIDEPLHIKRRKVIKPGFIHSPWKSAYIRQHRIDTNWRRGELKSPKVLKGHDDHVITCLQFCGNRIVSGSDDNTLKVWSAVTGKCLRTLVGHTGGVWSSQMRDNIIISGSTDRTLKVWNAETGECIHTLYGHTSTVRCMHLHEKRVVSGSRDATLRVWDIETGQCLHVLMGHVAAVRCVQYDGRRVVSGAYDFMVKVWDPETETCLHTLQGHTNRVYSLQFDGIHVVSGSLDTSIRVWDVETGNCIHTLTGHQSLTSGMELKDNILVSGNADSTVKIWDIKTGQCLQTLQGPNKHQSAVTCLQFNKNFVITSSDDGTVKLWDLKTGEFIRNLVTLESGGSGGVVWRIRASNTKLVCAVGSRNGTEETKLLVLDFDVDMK
UniProt Q14839: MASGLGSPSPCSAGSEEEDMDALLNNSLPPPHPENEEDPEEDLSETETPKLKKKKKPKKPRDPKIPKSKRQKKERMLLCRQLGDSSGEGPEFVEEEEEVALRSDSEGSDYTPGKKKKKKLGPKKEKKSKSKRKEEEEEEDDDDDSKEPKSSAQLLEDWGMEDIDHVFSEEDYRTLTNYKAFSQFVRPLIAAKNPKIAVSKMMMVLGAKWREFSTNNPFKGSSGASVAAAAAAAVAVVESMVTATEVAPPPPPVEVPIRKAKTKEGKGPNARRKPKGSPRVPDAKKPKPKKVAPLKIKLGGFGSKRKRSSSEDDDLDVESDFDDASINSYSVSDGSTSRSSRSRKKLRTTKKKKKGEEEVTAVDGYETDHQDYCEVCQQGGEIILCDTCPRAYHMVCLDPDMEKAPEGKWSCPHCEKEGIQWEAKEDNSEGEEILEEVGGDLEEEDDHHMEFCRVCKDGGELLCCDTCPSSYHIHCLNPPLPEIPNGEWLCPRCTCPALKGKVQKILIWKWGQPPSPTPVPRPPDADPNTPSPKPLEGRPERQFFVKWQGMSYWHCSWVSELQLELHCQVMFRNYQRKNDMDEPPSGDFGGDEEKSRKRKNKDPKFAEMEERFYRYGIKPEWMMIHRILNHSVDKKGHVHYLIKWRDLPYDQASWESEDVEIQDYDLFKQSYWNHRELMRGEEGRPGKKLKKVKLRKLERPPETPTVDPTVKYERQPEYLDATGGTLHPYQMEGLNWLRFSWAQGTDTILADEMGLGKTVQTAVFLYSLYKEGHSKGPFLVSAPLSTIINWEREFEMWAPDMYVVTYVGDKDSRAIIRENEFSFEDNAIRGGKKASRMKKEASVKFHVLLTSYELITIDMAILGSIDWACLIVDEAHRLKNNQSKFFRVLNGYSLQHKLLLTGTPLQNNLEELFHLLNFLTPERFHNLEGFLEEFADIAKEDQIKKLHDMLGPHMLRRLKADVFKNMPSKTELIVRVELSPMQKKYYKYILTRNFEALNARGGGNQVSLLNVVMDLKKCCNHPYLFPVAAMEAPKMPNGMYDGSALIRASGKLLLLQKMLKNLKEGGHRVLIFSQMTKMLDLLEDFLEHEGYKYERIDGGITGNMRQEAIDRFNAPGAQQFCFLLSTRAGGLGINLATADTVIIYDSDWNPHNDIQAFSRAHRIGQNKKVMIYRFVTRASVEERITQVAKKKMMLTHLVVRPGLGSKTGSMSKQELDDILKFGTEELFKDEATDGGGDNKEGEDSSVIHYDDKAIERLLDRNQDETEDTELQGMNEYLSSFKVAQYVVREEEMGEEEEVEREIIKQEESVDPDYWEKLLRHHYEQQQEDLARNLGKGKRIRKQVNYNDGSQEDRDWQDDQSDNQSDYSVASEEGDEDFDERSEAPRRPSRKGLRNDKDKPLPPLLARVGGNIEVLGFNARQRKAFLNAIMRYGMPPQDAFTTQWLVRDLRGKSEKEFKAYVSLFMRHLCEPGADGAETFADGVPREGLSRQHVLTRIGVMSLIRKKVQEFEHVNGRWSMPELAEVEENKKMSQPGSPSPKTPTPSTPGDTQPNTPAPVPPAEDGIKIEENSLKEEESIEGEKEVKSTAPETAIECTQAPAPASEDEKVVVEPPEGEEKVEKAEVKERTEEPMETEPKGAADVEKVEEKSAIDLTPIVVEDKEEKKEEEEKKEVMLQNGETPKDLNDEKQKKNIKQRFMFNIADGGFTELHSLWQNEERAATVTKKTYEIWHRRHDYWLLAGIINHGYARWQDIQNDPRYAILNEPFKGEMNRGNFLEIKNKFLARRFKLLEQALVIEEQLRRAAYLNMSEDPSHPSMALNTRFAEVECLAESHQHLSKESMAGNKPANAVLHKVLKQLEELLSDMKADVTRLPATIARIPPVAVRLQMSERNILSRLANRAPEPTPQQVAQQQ

The target in this test is epitope-tagged FBXW7 (bait of the IP-MS) (human) (UniProt Q969H0). In words: affinity purification with mass spectrometry; epitope-tagged FBXW7 immunoprecipitated, coprecipitating proteins identified by mass spectrometry; cells not given.

Results are given in words; binding and its absence hold for the method and conditions named. In cells and extracts the contact can be indirect. Here binding means that the protein was enriched with, or labelled near, the bait; the list need not be complete.

Consider “CHD4 (found in the IP-MS of FBXW7) (from UniProt Q14839 1-1912)”, for which the binding result is “binds”.
